The list shows a part of the results, in another mix than the full data. The calls were merged from several studies; some rest on single wells. The list shows a part of the results.
How the values were obtained:
Conditions in all cases: stereoisomer not certain
O5AU1 = test system: T1, O5AU1
T1 sequence (whole entry): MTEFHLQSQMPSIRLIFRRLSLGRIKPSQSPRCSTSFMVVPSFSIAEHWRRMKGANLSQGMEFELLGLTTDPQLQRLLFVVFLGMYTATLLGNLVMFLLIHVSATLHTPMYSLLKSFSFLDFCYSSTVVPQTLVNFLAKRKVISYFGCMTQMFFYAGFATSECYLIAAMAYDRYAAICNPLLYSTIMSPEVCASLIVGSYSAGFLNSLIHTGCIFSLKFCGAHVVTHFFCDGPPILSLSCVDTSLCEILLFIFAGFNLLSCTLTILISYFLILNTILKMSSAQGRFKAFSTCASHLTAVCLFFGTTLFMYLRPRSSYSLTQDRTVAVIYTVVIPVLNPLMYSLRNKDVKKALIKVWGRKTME
Summary of the method: (§1)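 Transient luciferase assays in mammalian cell lines were common, though methods varied by source. The values come from published papers and their supplementary material, with extra details from the original authors when needed. Responsive refers to a measured signal the original authors judged statistically different from baseline, and non-responsive (inactive) to the remainder.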

O5H14 = test system: T2, O5H14
T2 sequence (whole entry): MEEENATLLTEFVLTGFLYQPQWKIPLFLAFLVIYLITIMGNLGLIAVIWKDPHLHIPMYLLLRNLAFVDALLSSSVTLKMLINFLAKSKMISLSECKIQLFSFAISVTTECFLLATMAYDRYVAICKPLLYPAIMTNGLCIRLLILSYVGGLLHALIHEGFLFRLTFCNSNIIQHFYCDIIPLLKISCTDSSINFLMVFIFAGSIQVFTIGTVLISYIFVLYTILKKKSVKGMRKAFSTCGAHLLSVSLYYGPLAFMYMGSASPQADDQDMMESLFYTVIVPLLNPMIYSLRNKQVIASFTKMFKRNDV
Summary of the method: as §1

O6C68 = test system: T3, O6C68
T3 sequence (whole entry): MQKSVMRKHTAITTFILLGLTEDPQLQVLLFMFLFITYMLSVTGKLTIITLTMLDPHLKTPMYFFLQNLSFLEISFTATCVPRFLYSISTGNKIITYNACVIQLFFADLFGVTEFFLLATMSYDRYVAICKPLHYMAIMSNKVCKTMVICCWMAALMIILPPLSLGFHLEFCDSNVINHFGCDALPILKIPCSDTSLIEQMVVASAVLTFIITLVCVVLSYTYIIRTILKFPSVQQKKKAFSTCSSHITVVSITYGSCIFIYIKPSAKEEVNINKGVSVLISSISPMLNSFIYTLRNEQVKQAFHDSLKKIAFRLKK
Summary of the method: as §1

O6C70 = test system: T4, O6C70
T4 sequence (whole entry): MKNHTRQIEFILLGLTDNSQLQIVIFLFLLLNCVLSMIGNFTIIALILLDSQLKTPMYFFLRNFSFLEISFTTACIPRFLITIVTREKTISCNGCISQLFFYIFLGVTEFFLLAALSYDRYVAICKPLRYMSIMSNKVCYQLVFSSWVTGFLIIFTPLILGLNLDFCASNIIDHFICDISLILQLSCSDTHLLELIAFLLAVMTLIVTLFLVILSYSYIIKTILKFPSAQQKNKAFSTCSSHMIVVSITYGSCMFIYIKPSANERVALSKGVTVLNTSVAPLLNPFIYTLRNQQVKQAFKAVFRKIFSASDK
Summary of the method: as §1

O7E24 = test system: T5, O7E24
T5 sequence (whole entry): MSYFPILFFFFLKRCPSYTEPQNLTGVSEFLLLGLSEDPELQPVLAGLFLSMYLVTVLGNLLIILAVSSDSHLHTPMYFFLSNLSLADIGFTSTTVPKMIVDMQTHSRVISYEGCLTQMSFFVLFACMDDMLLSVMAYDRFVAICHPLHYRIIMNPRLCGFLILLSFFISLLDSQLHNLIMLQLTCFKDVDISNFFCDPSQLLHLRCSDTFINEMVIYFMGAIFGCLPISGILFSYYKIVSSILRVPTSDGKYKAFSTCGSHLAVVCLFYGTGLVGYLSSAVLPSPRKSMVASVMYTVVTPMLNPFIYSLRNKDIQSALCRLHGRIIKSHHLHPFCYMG
Summary of the method: as §1

OR10A3 (Homo sapiens) = biological target: T6, OR10A3 (Homo sapiens) (UniProt P58181)
T6 sequence (whole entry): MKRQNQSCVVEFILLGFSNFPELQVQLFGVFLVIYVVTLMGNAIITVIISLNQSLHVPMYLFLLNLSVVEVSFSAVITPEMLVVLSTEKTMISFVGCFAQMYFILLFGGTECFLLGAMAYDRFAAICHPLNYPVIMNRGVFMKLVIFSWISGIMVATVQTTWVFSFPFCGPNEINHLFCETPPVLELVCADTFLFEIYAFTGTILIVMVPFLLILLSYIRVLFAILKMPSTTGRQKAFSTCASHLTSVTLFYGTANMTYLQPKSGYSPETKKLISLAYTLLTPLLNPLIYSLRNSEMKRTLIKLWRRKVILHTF
Summary of the method: as §1

OR10A5 (Homo sapiens) = biological target: T7, OR10A5 (Homo sapiens) (UniProt Q9H207)
T7 sequence (whole entry): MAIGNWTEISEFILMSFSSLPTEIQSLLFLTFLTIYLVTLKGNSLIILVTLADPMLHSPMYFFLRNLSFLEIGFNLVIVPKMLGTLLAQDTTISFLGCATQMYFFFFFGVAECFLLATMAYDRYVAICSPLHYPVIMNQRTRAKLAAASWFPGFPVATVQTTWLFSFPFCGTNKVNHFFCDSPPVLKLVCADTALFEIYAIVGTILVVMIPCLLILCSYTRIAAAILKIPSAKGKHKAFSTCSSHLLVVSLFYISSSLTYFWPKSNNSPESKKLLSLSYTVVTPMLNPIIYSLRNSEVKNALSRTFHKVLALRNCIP
Summary of the method: as §1

OR10A6 (Homo sapiens) = biological target: T8, OR10A6 (Homo sapiens) (UniProt Q8NH74)
T8 sequence (whole entry): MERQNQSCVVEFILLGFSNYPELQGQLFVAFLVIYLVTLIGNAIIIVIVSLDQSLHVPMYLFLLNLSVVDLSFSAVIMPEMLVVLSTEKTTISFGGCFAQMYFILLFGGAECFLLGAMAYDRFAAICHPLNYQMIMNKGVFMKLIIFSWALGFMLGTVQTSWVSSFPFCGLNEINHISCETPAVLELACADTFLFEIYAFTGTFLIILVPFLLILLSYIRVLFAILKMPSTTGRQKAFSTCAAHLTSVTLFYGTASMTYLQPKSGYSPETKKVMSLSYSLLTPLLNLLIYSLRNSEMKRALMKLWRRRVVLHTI
Summary of the method: as §1

OR10A7 (Homo sapiens) = biological target: T9, OR10A7 (Homo sapiens) (UniProt Q8NGE5)
T9 sequence (whole entry): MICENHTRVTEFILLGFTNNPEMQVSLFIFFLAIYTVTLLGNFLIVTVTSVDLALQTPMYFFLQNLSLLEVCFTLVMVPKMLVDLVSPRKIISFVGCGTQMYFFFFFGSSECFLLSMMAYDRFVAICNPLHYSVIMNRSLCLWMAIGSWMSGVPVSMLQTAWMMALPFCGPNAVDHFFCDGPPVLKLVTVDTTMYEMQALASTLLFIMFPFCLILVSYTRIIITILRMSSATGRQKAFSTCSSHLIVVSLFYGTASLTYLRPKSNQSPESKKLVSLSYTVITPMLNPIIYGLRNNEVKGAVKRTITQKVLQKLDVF
Summary of the method: as §1

OR10AG1 (Homo sapiens) = biological target: T10, OR10AG1 (Homo sapiens) (UniProt Q8NH19)
T10 sequence (whole entry): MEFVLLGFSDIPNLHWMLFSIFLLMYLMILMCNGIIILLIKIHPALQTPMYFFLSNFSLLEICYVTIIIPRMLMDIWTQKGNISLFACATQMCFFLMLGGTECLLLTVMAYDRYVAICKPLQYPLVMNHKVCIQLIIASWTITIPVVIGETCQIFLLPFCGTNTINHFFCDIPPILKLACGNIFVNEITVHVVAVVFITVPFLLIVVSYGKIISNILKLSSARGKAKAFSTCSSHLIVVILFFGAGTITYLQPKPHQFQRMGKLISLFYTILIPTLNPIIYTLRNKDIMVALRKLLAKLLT
Summary of the method: as §1

Measured: odorant receptor agonist call;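 also: active if original authors judged signal statistically different from baseline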

CS
inactive: all assays above
